# From patent US20240168008A1, “Methods of Breath-Based PFAS Exposure Assessment, and Systems for Practicing the Same” (priority 2022, published 2024)
# Test: Detection of PFAS in synthetic breath samples (headspace device, SuperSESI-X, Exploris 120 HRMS)
# Set-up: species or system human
# [1] = Breath 1 + PFAS-mix, low concentration PFAS mixture in headspace device
# [2] = Breath 2 + PFAS-mix, low concentration PFAS mixture in headspace device
# [3] = Breath 3 + PFAS-mix, low concentration PFAS mixture in headspace device
# [4] = Breath 4 + PFAS-mix, low concentration PFAS mixture in headspace device
# [5] = Breath 5 + PFAS-mix, low concentration PFAS mixture in headspace device
# [6] = Breath 11 + PFAS-mix, relatively higher concentration PFAS mixture in headspace device
# [7] = Breath 12 + PFAS-mix, relatively higher concentration PFAS mixture in headspace device
# [8] = Breath 13 + PFAS-mix, relatively higher concentration PFAS mixture in headspace device
# [9] = Breath 14 + PFAS-mix, relatively higher concentration PFAS mixture in headspace device
# [10] = Breath 15 + PFAS-mix, relatively higher concentration PFAS mixture in headspace device
SMILES,PFAS level in synthetic breath [1],PFAS level in synthetic breath [2],PFAS level in synthetic breath [3],PFAS level in synthetic breath [4],PFAS level in synthetic breath [5],PFAS level in synthetic breath [6],PFAS level in synthetic breath [7],PFAS level in synthetic breath [8],PFAS level in synthetic breath [9],PFAS level in synthetic breath [10]
"O=S(=O)(O)C(F)(F)C(F)(F)C(F)(F)C(F)(F)C(F)(F)C(F)(F)C(F)(F)C(F)(F)F [PFOS, Perfluorooctanesulfonic acid]",2.11E+05,208000,200000,176000,140000,1790000,1610000,1630000,2080000,1710000
"O=C(O)C(F)(F)C(F)(F)C(F)(F)C(F)(F)C(F)(F)C(F)(F)C(F)(F)C(F)(F)C(F)(F)C(F)(F)C(F)(F)C(F)(F)C(F)(F)F [PFTeDA, Perfluorotetradecanoic acid]",42100,36400,35500,28600,19400,150000,139000,185000,222000,160000
"O=C(O)C(F)(F)C(F)(F)C(F)(F)C(F)(F)C(F)(F)C(F)(F)C(F)(F)F [PFOA, Perfluorooctanoic Acid]",598000,501000,434000,328000,308000,618000,816000,989000,1190000,1160000
"O=C(O)C(F)(F)C(F)(F)C(F)(F)C(F)(F)C(F)(F)C(F)(F)F [PFHpA, Perfluoroheptanoic acid]",491000,331000,275000,188000,204000,542000,777000,738000,741000,1010000
"O=C(O)C(F)(F)C(F)(F)C(F)(F)C(F)(F)C(F)(F)F [PFHxA, Perfluorohexanoic Acid]",233000,649000,645000,599000,743000,882000,983000,721000,797000,745000
"O=C(O)C(F)(F)C(F)(F)C(F)(F)F [PFBA, Perfluorobutanoic acid]",9760,5400,189000,174500,156000,195000,234000,213000,240000,247000
"O=C(O)C(F)(F)C(F)(F)C(F)(F)C(F)(F)F [PFPeA, Perfluoropentanoic Acid]",42500,25900,16000,11600,11400,94800,122000,121000,115000,111000
"O=C(O)C(F)(F)C(F)(F)C(F)(F)C(F)(F)C(F)(F)C(F)(F)C(F)(F)C(F)(F)F [PFNA, Perfluorononanoic acid]",665000,635000,597000,501000,357000,884000,967000,1140000,1390000,1110000
"CCN(CC(=O)O)S(=O)(=O)C(F)(F)C(F)(F)C(F)(F)C(F)(F)C(F)(F)C(F)(F)C(F)(F)C(F)(F)F [N-EtFOSAA, 2-(N-Ethylperfluorooctanesulfonamido) acetic acid]",9150,9330,9360,8260,6890,12500,16300,15700,26500,21200
"NS(=O)(=O)C(F)(F)C(F)(F)C(F)(F)C(F)(F)C(F)(F)C(F)(F)C(F)(F)C(F)(F)F [PFOSA, Perfluorooctanesulfonamide]",2.04E+06,2.04E+06,1950000,1810000,1470000,15300000,15400000,13600000,19500000,16100000
"O=C(O)C(F)(F)C(F)(F)C(F)(F)C(F)(F)C(F)(F)C(F)(F)C(F)(F)C(F)(F)C(F)(F)F [PFDA, Perfluorodecanoic acid]",602000,594000,547000,432000,399000,840000,862000,1120000,1360000,1100000
"O=C(O)C(F)(F)C(F)(F)C(F)(F)C(F)(F)C(F)(F)C(F)(F)C(F)(F)C(F)(F)C(F)(F)C(F)(F)F [PFUnDA, Perfluoroundecanoic acid]",320000,309000,300000,232000,244000,420000,480000,649000,708000,628000
"O=C(O)C(F)(F)C(F)(F)C(F)(F)C(F)(F)C(F)(F)C(F)(F)C(F)(F)C(F)(F)C(F)(F)C(F)(F)C(F)(F)F [PFDoDA, Perfluorododecanoic]",171000,168000,159000,135000,119000,345000,310000,384000,448000,387000
"O=C(O)C(F)(F)C(F)(F)C(F)(F)C(F)(F)C(F)(F)C(F)(F)C(F)(F)C(F)(F)C(F)(F)C(F)(F)C(F)(F)C(F)(F)F [PFTrDA, Perfluorotridecanoic acid]",99400,98800,93300,76900,51600,236000,218000,274000,341000,255000
